This is an account of results in article doi:10.1101/2025.06.04.657875.

Results are given in words; binding and its absence hold for the method and conditions named. For some assays here: In cells and extracts the contact can be indirect. Some results given as binding are weak or reduced against the parent protein; the word gives no strength. Sequences can lack the tags named with a protein.

In assay [1] the target is T1, Ihog:RFP (wild-type Interference hedgehog tagged with RFP) (Drosophila melanogaster) (UniProt Q9VM64).
T1 sequence: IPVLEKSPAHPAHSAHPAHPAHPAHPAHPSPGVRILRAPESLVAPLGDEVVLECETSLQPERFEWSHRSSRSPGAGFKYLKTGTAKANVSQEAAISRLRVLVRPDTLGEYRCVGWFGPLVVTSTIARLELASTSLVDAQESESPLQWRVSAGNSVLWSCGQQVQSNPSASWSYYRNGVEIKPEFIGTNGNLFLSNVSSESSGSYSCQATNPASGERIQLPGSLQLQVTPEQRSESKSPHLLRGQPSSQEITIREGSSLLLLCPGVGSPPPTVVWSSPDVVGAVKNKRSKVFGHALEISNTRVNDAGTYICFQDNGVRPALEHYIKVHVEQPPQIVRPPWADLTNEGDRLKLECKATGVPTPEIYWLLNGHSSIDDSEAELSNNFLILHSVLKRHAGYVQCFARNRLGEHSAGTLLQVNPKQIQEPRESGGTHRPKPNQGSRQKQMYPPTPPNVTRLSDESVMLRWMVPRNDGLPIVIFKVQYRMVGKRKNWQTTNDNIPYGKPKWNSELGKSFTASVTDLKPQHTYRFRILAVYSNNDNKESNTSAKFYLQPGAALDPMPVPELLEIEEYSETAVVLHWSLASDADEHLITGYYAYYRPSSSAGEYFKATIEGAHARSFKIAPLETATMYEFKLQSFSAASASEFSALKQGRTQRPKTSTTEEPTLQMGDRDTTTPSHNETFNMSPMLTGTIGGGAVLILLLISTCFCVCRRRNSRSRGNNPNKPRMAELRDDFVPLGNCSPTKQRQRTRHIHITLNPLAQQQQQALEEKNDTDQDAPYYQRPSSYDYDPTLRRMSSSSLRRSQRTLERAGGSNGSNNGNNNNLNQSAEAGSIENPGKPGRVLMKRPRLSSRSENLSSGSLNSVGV
As to the kind of experiment: co-IP.

Assay [2] has as its target T1, Ihog:RFP (wild-type Interference hedgehog tagged with RFP) (Drosophila melanogaster). As to the kind of experiment: fluorescence imaging of tissue.

B1: Shf:V5 (wild-type Shifted/DmWif1 tagged with V5) (protein, UniProt Q9W3W5 31-456)
chain: RQQHHNRNNNNNNRRADSSSSEEGHGNTSDGLDNFADQDASFVGHGHQPRRGQRKKQQGGGGGGSGGGGGNGGGGGSRHNRNEESGISLWINEQQLKMLTALYFPQGYSERLYAIHNSRVTNDLRDTTLYNFLVIPSEVNYVNFTWKSGRRKYFYDFDRLQTMDESILKAPTLSIRKSGRIPQEQKNFSIFLPCTGNSSGTASFNVGLKIQTRHNKPLSGTPIRLNFKKECAHRGVYDIDASNPTSLTTLQECSLKCGKNGYCNEHHICKCNVGYTGQYCETAFCFPQCLNGGNCTAPSVCTCPEGYQGTQCEGGICKDKCLNGGKCIQKDKCQCSKGYYGLRCEYSKCVIPCKNEGRCIGNNLCRCPNGLRGDHCEIGRKQRSICKCRNGTCVSHKHCKCHPGFYGRHCNGRKRRHVHRNDDSKF
For B1, the binding entry in assay [1] is listed as “binds”.

B2: Shf:GFP (endogenous Shf tagged with GFP, shfGFP knock-in allele) (protein, UniProt Q9W3W5 31-456)
chain: RQQHHNRNNNNNNRRADSSSSEEGHGNTSDGLDNFADQDASFVGHGHQPRRGQRKKQQGGGGGGSGGGGGNGGGGGSRHNRNEESGISLWINEQQLKMLTALYFPQGYSERLYAIHNSRVTNDLRDTTLYNFLVIPSEVNYVNFTWKSGRRKYFYDFDRLQTMDESILKAPTLSIRKSGRIPQEQKNFSIFLPCTGNSSGTASFNVGLKIQTRHNKPLSGTPIRLNFKKECAHRGVYDIDASNPTSLTTLQECSLKCGKNGYCNEHHICKCNVGYTGQYCETAFCFPQCLNGGNCTAPSVCTCPEGYQGTQCEGGICKDKCLNGGKCIQKDKCQCSKGYYGLRCEYSKCVIPCKNEGRCIGNNLCRCPNGLRGDHCEIGRKQRSICKCRNGTCVSHKHCKCHPGFYGRHCNGRKRRHVHRNDDSKF
Consider B2, for which, in assay [2], the binding entry was “binds”.
